Results are given in words; binding and its absence hold for the method and conditions named. Binding seen in cells or lysates may run through a third protein. Some entries that bind do so weakly or less than the wild type. For some assays here: Sequences can lack the tags named with a protein. Blank lines part the entries; values can stand above or below the molecule they belong to.
Columns and labels:
[1] = target: cLUC-SPT4-2 (Arabidopsis thaliana) (UniProt Q94C60); experiment: split reporter
[2] = target: T1, SPT4-2-GFP (Arabidopsis thaliana) (UniProt Q94C60); experiment: co-IP
T1 sequence: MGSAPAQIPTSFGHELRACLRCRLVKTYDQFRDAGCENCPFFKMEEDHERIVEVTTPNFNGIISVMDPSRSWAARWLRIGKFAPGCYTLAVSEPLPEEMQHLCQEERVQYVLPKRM

Molecule: ELP1-nLUC (from UniProt Q9FNA4 1-1319)
binding [1]: binds

binding [2]: binds
B1: native ELP1 (protein, UniProt Q9FNA4 1-1319)
chain: MKNLKLFSEVPQNIQLHSTEEVVQFAAYDIDQSRLFFASSANFVYALQLSSFQNESAGAKSAMPVEVCSIDIEPGDFITAFDYLAEKESLLIGTSHGLLLVHNVESDVTELVGNIEGGVKCISPNPTGDLLGLITGLGQLLVMTYDWALMYEKALGEVPEGGYVRETNDLSVNCGGISISWRGDGKYFATMGEVYESGCMSKKIKIWESDSGALQSSSETKEFTQGILEWMPSGAKIAAVYKRKSDDSSPSIAFFERNGLERSSFRIGEPEDATESCENLKWNSASDLLAGVVSCKTYDAIRVWFFSNNHWYLKQEIRYPREAGVTVMWDPTKPLQLICWTLSGQVSVRHFMWVTAVMEDSTAFVIDNSKILVTPLSLSLMPPPMYLFSLSFSSAVRDIAYYSRNSKNCLAVFLSDGNLSFVEFPAPNTWEDLEGKDFSVEISDCKTALGSFVHLLWLDVHSLLCVSAYGSSHNKCLSSGGYDTELHGSYLQEVEVVCHEDHVPDQVTCSGFKASITFQTLLESPVLALAWNPSKRDSAFVEFEGGKVLGYASRSEIMETRSSDDSVCFPSTCPWVRVAQVDASGVHKPLICGLDDMGRLSINGKNLCNNCSSFSFYSELANEVVTHLIILTKQDFLFIVDTKDVLNGDVALGNVFFVIDGRRRDEENMSYVNIWERGAKVIGVLNGDEAAVILQTMRGNLECIYPRKLVLSSITNALAQQRFKDAFNLVRRHRIDFNVIVDLYGWQAFLQSAVAFVEQVNNLNHVTEFVCAMKNEDVTETLYKKFSFSKKGDEVFRVKDSCSNKVSSVLQAIRKALEEHIPESPSRELCILTTLARSDPPAIEESLLRIKSVREMELLNSSDDIRKKSCPSAEEALKHLLWLLDSEAVFEAALGLYDLNLAAIVALNSQRDPKEFLPYLQELEKMPESLMHFKIDIKLQRFDSALRNIVSAGVGYFPDCMNLIKKNPQLFPLGLLLITDPEKKLVVLEAWADHLIDEKRFEDAATTYLCCCKLEKASKAYRECGDWSGVLRVGALMKLGKDEILKLAYELCEEVNALGKPAEAAKIALEYCSDISGGISLLINAREWEEALRVAFLHTADDRISVVKSSALECASGLVSEFKESIEKVGKYLTRYLAVRQRRLLLAAKLKSEERSVVDLDDDTASEASSNLSGMSAYTLGTRRGSAASVSSSNATSRARDLRRQRKSGKIRAGSAGEEMALVDHLKGMRMTDGGKRELKSLLICLVTLGEMESAQKLQQTAENFQVSQVAAVELAHDTVSSESVDEEVYCFERYAQKTRSTARDSDAFSWMLKVFISP
